# Measurements as given in PubChem BioAssay AID2685 (National Center for Advancing Translational Sciences (NCATS), 2010).
# Hit rate of the full screen: of about 320,000 compounds, about 2,100 (0.66%) were called active. Inconclusive results, whose numbers are uncertain, are shown with a selection of clear calls. The call rests on the fitted dose curve; in most records, active means well fitted inhibition curve with a large enough effect in the signal ratio, with a control signal flat (not every such curve was filed as active); inconclusive means small, poorly fitted or top-dose-only effect, or effect the other way, or a change in a side signal; inactive means flat fitted curve, though single readings scatter; the % refers to the signal ratio. Where the call is inconclusive, the potency comes from a doubtful curve fit.
# Test: qHTS Assay for Lipid Storage Modulators in Drosophila S3 Cells
# Settings: BODIPY lipid droplet fluorescence, 18-24 h, cells fed with added oleic acid; lipid storage change, negative = inhibition: at 46.1 µM (top of the series) unless noted
# Method in brief: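 Laser-scanning cytometry quantifies lipid droplet accumulation (500–530 nm total intensity; droplet/cell object ratio) in oleic acid-fed (400 uM added) Drosophila S3 cells treated with a concentration series. 20 uM Triacsin C defined 100% inhibition.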
# On the % scale 0 is the no-effect control and ±100 the full control effect; potency means the concentration at half of the fitted maximal effect.
SMILES,"lipid storage change, negative = inhibition",Potency,outcome
NC(=O)[C@@H]1CCCN1Cc1nc(Cc2cccc(C(F)(F)F)c2)no1,inconclusive: 8.81%,,
CCOC(=O)COc1cccc2c(=O)n(CC(=O)NCCc3ccccc3)ccc12,inconclusive: 18.3%,,
CCC1C(=O)NCCN1C(=O)c1cccc(OC2CCN(S(=O)(=O)N(C)C)CC2)c1 (stereo not drawn),,"inconclusive: 0.92 µM [falling, single point]",
Cc1cc(OCc2cn3cccnc3n2)ccc1Cl,inconclusive: -68.9%,,
COc1ccc(N2CCN(C(=S)NC(C)c3ccccc3)CC2)cc1 (stereo not drawn),inconclusive: 9.94%,,
COc1ccc(N(C(=O)c2ccccc2OC(C)=O)C(C)C2CC2)cc1 (stereo not drawn),,"inconclusive: 20.6 µM [activator, single point]",
N#CN(CC(N)=O)c1nc(N2CCCCC2)nc(N2CCCCC2)n1,,"inconclusive: 29.1 µM [falling, single point]",
Clc1ccc2[nH]c(-c3ccccc3)cc2c1,,"inconclusive: 0.58 µM [falling, full curve]",
Cc1ccn(CC(=O)N2CCCC(N3CCN(Cc4ccc5c(c4)OCO5)CC3)C2)n1 (stereo not drawn),inactive: 7.81%,,
CC1(c2ccc([N+](=O)[O-])cc2)CC(C)(C)N(C(=O)c2ccccc2)c2ccccc21 (stereo not drawn),inconclusive: 4.91%,,
COc1ccc(S(=O)(=O)N(C)CC(=O)NCCC2=CCCCC2)cc1C,,"inconclusive: 0.0065 µM [falling, full curve, poor fit]",
CC(=O)Nc1ccc(S(=O)(=O)N2c3ccccc3NC(=O)CC2C)c(Cl)c1 (stereo not drawn),,"inconclusive: 0.731 µM [falling, full curve, poor fit]",
CC(CCc1ccccc1)NC(=O)c1ccc(Br)cc1 (stereo not drawn),,"inconclusive: 20.6 µM [falling, single point]",
COc1ccccc1N(/N=C1\Sc2ccccc2C1=O)C(C)=O,,active: 16.4 µM,
C[C@@H]1CC=C[C@H]2[C@H]1C(=O)N(Cc1ccccc1)[C@H]2c1ccc(-c2ccc(N(C)C)cc2)cc1F,inconclusive: -19.5%,,
CCOc1ccc(N2CC(C(=O)N3CCCCC3)CC2=O)cc1 (stereo not drawn),inconclusive: 17.4%,,
Cc1cc(C)cc(NC(=O)CNC(c2ccccc2)c2ccccc2)c1,,"inconclusive: 13 µM [activator, partial curve]",
Cc1ccc(-c2csc(NC(=O)C3=NN(c4ccccc4)C(=O)CC3)n2)cc1,inconclusive: -10.3%,,
CC1=C(C(N)=O)C(c2sccc2C)n2nnnc2N1 (stereo not drawn),inconclusive: -39.7%,,
Cc1ccc2c(c1)C(c1ccccc1)N(C(=O)c1cccc([N+](=O)[O-])c1)CC(=O)N2 (stereo not drawn),inconclusive: 4.98%,,
Cn1c2c(c(=O)n(C)c1=O)C(c1ccccc1F)C(C#N)=C(N)O2 (stereo not drawn),inconclusive: 12.3%,,
C=CCNC(=S)N/N=C/c1ccc(-c2cccc([N+](=O)[O-])c2)o1,inconclusive: -18.4%,,
COc1cc(OC)cc(-n2c3nc4ccccc4nc3c3c(=O)n(CC4CCCO4)cnc32)c1 (stereo not drawn),inconclusive: 26.1%,,
Cc1cc(C)cc(NC(=O)CSCc2cc(=O)n3ccsc3n2)c1,inconclusive: -4.85%,,

# Rewritten with tabs: 8 of the compounds above
SMILES	lipid storage change, negative = inhibition	Potency	outcome
C[C@@H]1CC=C[C@H]2[C@H]1C(=O)N(Cc1ccccc1)[C@H]2c1ccc(-c2ccc(N(C)C)cc2)cc1F	inconclusive: -19.5%		
CCOc1ccc(N2CC(C(=O)N3CCCCC3)CC2=O)cc1 (stereo not drawn)	inconclusive: 17.4%		
Cc1cc(C)cc(NC(=O)CNC(c2ccccc2)c2ccccc2)c1		inconclusive: 13 µM [activator, partial curve]	
Cc1ccc(-c2csc(NC(=O)C3=NN(c4ccccc4)C(=O)CC3)n2)cc1	inconclusive: -10.3%		
CC1=C(C(N)=O)C(c2sccc2C)n2nnnc2N1 (stereo not drawn)	inconclusive: -39.7%		
Cc1ccc2c(c1)C(c1ccccc1)N(C(=O)c1cccc([N+](=O)[O-])c1)CC(=O)N2 (stereo not drawn)	inconclusive: 4.98%		
Cn1c2c(c(=O)n(C)c1=O)C(c1ccccc1F)C(C#N)=C(N)O2 (stereo not drawn)	inconclusive: 12.3%		
C=CCNC(=S)N/N=C/c1ccc(-c2cccc([N+](=O)[O-])c2)o1	inconclusive: -18.4%		

# Further compounds follow.

SMILES,"lipid storage change, negative = inhibition",Potency,outcome
O=S1(=O)CC(O)C(N=Nc2c(O)n(Cc3ccccc3)c3ccccc23)C1 (stereo not drawn),inconclusive: 12.2%,,
COc1ccc(/C=N/NS(=O)(=O)c2ccc(C)cc2)cc1,,"inconclusive: 6.51 µM [activator, single point]",
Cc1ccc(C(C)C)c(OCCN2C(=O)NC(C)(C)C2=O)c1,inconclusive: 4.37%,,
CNC(=S)Nc1cc(C(=O)N2CCCC2)ccc1N1CCCC1,inactive: 5.95%,,
CCCn1ncc(C(=O)NC2CCCN(Cc3ccc(Cl)cc3)C2)c1C (stereo not drawn),inconclusive: 279%,,
COc1ccc(NC(=O)CSCC(=O)Nc2ccc(S(=O)(=O)N3CCOCC3)cc2)cc1,,"inconclusive: 0.0082 µM [falling, full curve, poor fit]",
CCc1cc2c(=O)c(-c3ccc4c(c3)OCCO4)c(C)oc2cc1OS(C)(=O)=O,,"inconclusive: 29.1 µM [falling, single point]",
C=CCN(C(=O)CNC(=O)c1ccco1)C(C(=O)NC1CCCCC1)c1ccccc1 (stereo not drawn),inconclusive: 130%,,
CC1CCc2cc(F)ccc2N1C(=O)CSc1nnc2c3ccccc3n(C)c2n1 (stereo not drawn),inconclusive: 0.525%,,
CC(C)Cc1nnc(NC(=O)CCC(=O)Nc2ccccc2)s1,,"inconclusive: 29.1 µM [activator, single point]",
O=C(CCS(=O)(=O)Cc1ccccc1)N1CCN(Cc2ccccc2)CC1,inconclusive: 8.87%,,
Cc1ccc[n+](-c2[nH]c(=O)sc2/C=N/N=C(\[O-])c2cccnc2)c1,inconclusive: -11%,,
COc1ccc(C)cc1Cn1nnc2ccccc21,,"inconclusive: 23.1 µM [activator, single point]",
C=CCn1c(CSCc2ccc(Cl)cc2)nnc1SCC(=O)NCc1ccccc1,inconclusive: 18.9%,,
CC(=O)c1cnn(-c2cc(Oc3ccc(F)cc3)ncn2)c1C,,"inconclusive: 6.51 µM [activator, single point]",
O=C(COC(=O)CC1CCCC1)Nc1cc2c(cc1Cl)C(=O)c1ccccc1C2=O,inconclusive: -29.3%,,
COc1ccccc1NC(=O)CCC(=O)OCc1ccc(Cl)cc1,inconclusive: -9.25%,,
CCOc1ccc2nc(SCC(=O)Nc3ccc4c(c3)OCCO4)[nH]c2c1,,,inactive [at 46.1 µM]
CC1CCC(C(=O)c2c(O)c3ccccc3oc2=O)CC1 (stereo not drawn),,"inconclusive: 0.0052 µM [activator, full curve, poor fit]",
COC(=O)Nc1ccc(S(=O)(=O)NCc2ccccn2)cc1,inconclusive: 13%,,
Cc1c(C(=O)Nc2cccc(Cl)c2)cn2c(nc3ccccc32)c1C#N,,"inconclusive: 8.2 µM [activator, partial curve]",
CC(C)OCCCNC(=O)C1CCN(S(=O)(=O)N2CCCC2)CC1,inconclusive: 1.22%,,
CC(O)C(C(=O)OCc1ccc([N+](=O)[O-])cc1)N1C(=O)c2ccccc2C1=O (stereo not drawn),inconclusive: -22%,,
CNc1ccccc1C(C)(C)c1cc(-c2cccc(OC)c2)no1,,"inconclusive: 20.6 µM [falling, partial curve, poor fit]",
